The list is a part of this screen's results and no random one: it gathers tests that were run many times, whatever their T/C, doses with no T/C, and many T/C values between a quarter and a half above the control. Further doses and runs are listed elsewhere. T/C: endpoint of the treated group in % of that of the vehicle group. Schedule codes are those of the source, read here as Q, the interval in days (D) or hours (H), X, the number of doses. Some T/C values are followed by the survivors on the day toxicity was checked, most often the fifth; where none is given, no animal had died by that day. Some doses were run more than once; the results are listed from low to high. Brackets with × stand for listed records that agree. Some doses have a count of surviving animals in place of a T/C: the source holds a T/C of zero for them, seemingly a mark for toxic or unscored doses. Survivors were counted at the toxicity check, usually on the fifth day, unless a day is given; later deaths do not show.
Tested on: BDF1 mice, colon carcinoma 38 sc, T/C %
Experiment: NCI In Vivo Anticancer Drug Screen. Data for tumor model Colon Carcinoma 38 (subcutaneous) in B6D2F1 (BDF1) mice
Conditions: T/C endpoint: median tumor weight (est.), higher T/C = larger tumour; for T/C: evaluated on day 20
How it was run: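 Transplantable tumor in mice; compound-treated vs vehicle-dosed controls. Measured survival or tumor size; value = T ÷ C.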

[1] = dose: 50.0 mg/kg/injection, schedule: Q07DX002 (ip), vehicle: saline with Tween-80
[2] = dose: 100.0 mg/kg/injection, schedule: Q07DX002 (ip), vehicle: saline with Tween-80
[3] = dose: 200.0 mg/kg/injection, schedule: Q07DX002 (ip), vehicle: saline with Tween-80
[4] = dose: 400.0 mg/kg/injection, schedule: Q07DX002 (ip), vehicle: saline with Tween-80
[5] = dose: 40.0 mg/kg/injection, schedule: Q07DX002 (ip), vehicle: Klucel (hydroxypropylcellulose) (HPC)
[6] = dose: 50.0 mg/kg/injection, schedule: Q07DX002 (ip), vehicle: Klucel (hydroxypropylcellulose) (HPC)
[7] = dose: 80.0 mg/kg/injection, schedule: Q07DX002 (ip), vehicle: Klucel (hydroxypropylcellulose) (HPC)

**Q.** For `CN(C)c1nc(N(C)C)nc(N(C)C)n1`, which T/C (dose: 20.0 mg/kg/injection, schedule: Q07DX002 (ip), vehicle: saline with Tween-80) is on record?
**A.** The T/C was 125, 127, 145, 151 % of control.

**Q.** And the T/C (dose: 20.0 mg/kg/injection, schedule: Q07DX003 (ip), vehicle: saline with Tween-80)?
**A.** Its T/C is 55, 81, 83, 113, 114 % of control.

**Q.** What about the T/C (dose: 25.0 mg/kg/injection, schedule: Q07DX002 (ip), vehicle: saline with Tween-80) of the same compound?
**A.** Its T/C is 131 % of control.

**Q.** And the T/C (dose: 40.0 mg/kg/injection, schedule: Q07DX002 (ip), vehicle: saline with Tween-80)?
**A.** Its T/C is 118, 125, 129, 156 % of control.

**Q.** What about the T/C (dose: 40.0 mg/kg/injection, schedule: Q07DX003 (ip), vehicle: saline with Tween-80) of the same compound?
**A.** The T/C was 64, 77, 92 [8 of 10 alive], 96, 113 % of control.

**Q.** And the T/C [1]?
**A.** Its T/C is 75, 84 [8 of 10 alive on day 20], 86, 92, 94, 96, 99, 110, 125 [9 of 10 alive on day 20], 127, 154 % of control [8 of 10 alive on day 20].

**Q.** What about the T/C (dose: 80.0 mg/kg/injection, schedule: Q07DX002 (ip), vehicle: saline with Tween-80) of the same compound?
**A.** Its T/C is 70, 89, 142, 193 % of control.

**Q.** What about the T/C (dose: 80.0 mg/kg/injection, schedule: Q07DX003 (ip), vehicle: saline with Tween-80) of the same compound?
**A.** The T/C was 72 [9 of 10 alive], 75, 88 [9 of 10 alive], 91, 115 % of control.

**Q.** And the T/C [2]?
**A.** Its T/C is 61, 76, 86, 89, 96, 97, 104, 106, 106 [9 of 10 alive on day 20], 110, 116 % of control.

**Q.** What about the T/C (dose: 160.0 mg/kg/injection, schedule: Q07DX002 (ip), vehicle: saline with Tween-80) of the same compound?
**A.** Its T/C is 54, 59 [8 of 10 alive], 77, 125 % of control.

**Q.** And the T/C (dose: 160.0 mg/kg/injection, schedule: Q07DX003 (ip), vehicle: saline with Tween-80)?
**A.** The T/C was 50, 51, 63, 66 [8 of 10 alive], 79 % of control.

**Q.** What about the T/C [3] of the same compound?
**A.** The T/C was 22, 52, 60 [7 of 10 alive on day 20], 64 [9 of 10 alive on day 20], 72, 83 (2×), 95 [8 of 10 alive on day 20], 99, 108, 129 % of control.

**Q.** What about the survivor count (dose: 320.0 mg/kg/injection, schedule: Q07DX002 (ip), vehicle: saline with Tween-80) of the same compound?
**A.** The survivor count was 6 of 10.

**Q.** What about the T/C (dose: 320.0 mg/kg/injection, schedule: Q07DX003 (ip), vehicle: saline with Tween-80) of the same compound?
**A.** Its T/C is 4 [9 of 10 alive], 8 [7 of 10 alive], 54 [9 of 10 alive], 63 [9 of 10 alive], 92 % of control [8 of 10 alive].

**Q.** What about the T/C [4] of the same compound?
**A.** The T/C was 30 [7 of 10 alive on day 20], 35 [8 of 10 alive on day 20], 40 [9 of 10 alive on day 20], 52 [7 of 10 alive on day 20], 74 [7 of 10 alive on day 20], 78 [7 of 10 alive on day 20], 93 [8 of 10 alive on day 20], 102, 156 % of control [8 of 10 alive on day 20].

**Q.** And the survivor count [4]?
**A.** The survivor count was 4 of 10 on day 20 and 5 of 10 on day 20.

**Q.** `O=NN(CCCl)C(=O)NC1CCCCC1` was tested. Which T/C (dose: 3.12 mg/kg/injection, schedule: Q07DX002 (ip), vehicle: Klucel (hydroxypropylcellulose) (HPC)) did it give?
**A.** Its T/C is 127 % of control.

**Q.** And the T/C (dose: 5.0 mg/kg/injection, schedule: Q07DX003 (ip), vehicle: Klucel (hydroxypropylcellulose) (HPC))?
**A.** Its T/C is 139 % of control.

**Q.** And the T/C (dose: 10.0 mg/kg/injection, schedule: Q07DX002 (ip), vehicle: Klucel (hydroxypropylcellulose) (HPC))?
**A.** The T/C was 16, 38, 48, 57, 58, 63, 73, 74, 76, 77, 89 [9 of 10 alive on day 20], 94, 99 [9 of 10 alive on day 20], 106 % of control.

**Q.** What about the T/C (dose: 20.0 mg/kg/injection, schedule: Q07DX002 (ip), vehicle: Klucel (hydroxypropylcellulose) (HPC)) of the same compound?
**A.** The T/C was 24, 26, 30, 36, 46, 51 [9 of 10 alive on day 20], 58, 59 [9 of 10 alive on day 20], 63, 68, 69, 70, 83, 123 % of control.

**Q.** And the T/C [5]?
**A.** The T/C was 2 [9 of 10 alive on day 20], 16, 19 [9 of 10 alive on day 20], 21, 37, 44, 56, 69 [8 of 10 alive on day 20], 76 % of control [9 of 10 alive on day 20].

**Q.** What about the survivor count [5] of the same compound?
**A.** The survivor count was 3 of 10 on day 20 and 6 of 10 on day 20.

**Q.** What about the survivor count [6] of the same compound?
**A.** Its survivor count is 4 of 10 on day 20.

**Q.** What about the T/C [7] of the same compound?
**A.** Its T/C is 14, 19 [7 of 10 alive on day 20], 22 [9 of 10 alive on day 20], 65, 67 % of control.

**Q.** And the survivor count [7]?
**A.** Its survivor count is 1 of 10 on day 20, 2 of 10 on day 20, 3 of 10 on day 20, 4 of 10 on day 20, 6 of 10 on day 20.

**Q.** What about the survivor count (dose: 100.0 mg/kg/injection, schedule: Q07DX002 (ip), vehicle: Klucel (hydroxypropylcellulose) (HPC)) of the same compound?
**A.** The survivor count was 1 of 10 on day 20.

**Q.** What about the survivor count (dose: 160.0 mg/kg/injection, schedule: Q07DX002 (ip), vehicle: Klucel (hydroxypropylcellulose) (HPC)) of the same compound?
**A.** The survivor count was 0 of 10 on day 20, 1 of 10 on day 20, 4 of 10 on day 20, 4 of 9 on day 20, 5 of 10 on day 20.

**Q.** Which T/C [2] does the source give for `C[CH2][Ge]([CH2]C)[CH2]C.C[CH2][Ge]([CH2]C)[CH2]C.C[CH2][Ge]([CH2]C)[O][Ge]([CH2]C)[CH2]C` here?
**A.** Its T/C is 126 % of control.

**Q.** And the survivor count (dose: 1600.0 mg/kg/injection, schedule: Q07DX002 (ip), vehicle: saline with Tween-80)?
**A.** The survivor count was 0 of 10 on day 20.

**Q.** Which survivor count (dose: 100.0 mg/kg/injection, schedule: Q07DX002 (ip), vehicle: suspension in saline) does the source give for `Cc1cc2nc3c(=O)[nH]c(=O)nc-3n(CC(O)C(O)C(O)C(O)CO)c2cc1C` (configuration not stated) here?
**A.** Its survivor count is 6 of 10 on day 20.

**Q.** What about the survivor count (dose: 1600.0 mg/kg/injection, schedule: Q07DX002 (ip), vehicle: suspension in saline) of the same compound?
**A.** Its survivor count is 6 of 10 on day 20.

**Q.** Which survivor count (dose: 32.0 micrograms/kg/injection, schedule: Q07DX002 (ip), vehicle: saline) does the source give for `C/C=C/c1cc2n(c1)C(=O)c1cc(OC3OC(C)C(NC)C(C)(O)C3O)c(C)c(O)c1NC2O` (configuration not stated) here?
**A.** Its survivor count is 0 of 10 on day 20.

**Q.** Which results are given for `COc1cc(O)c2c(O)c3c(c4c2c1[C@]1(C4)C(C)=CCCC1(C)C)[C@H](O)[C@@]1(O)CC(=O)C(C(N)=O)=C(O)[C@@]1(O)C3=O`?
**A.** survivor count [1]: 3 of 10 on day 20 and 6 of 10 on day 20; survivor count [2]: 0 of 10 on day 20 and 3 of 10 on day 20; survivor count [3]: 0 of 10 on day 20

**Q.** Which survivor count (dose: 100.0 mg/kg/injection, schedule: Q07DX002 (ip), vehicle: water) does the source give for `O=C(O)c1c2c(nc3ccccc13)Cc1ccccc1-2` here?
**A.** The survivor count was 4 of 10 on day 20.

**Q.** What about the survivor count (dose: 200.0 mg/kg/injection, schedule: Q07DX002 (ip), vehicle: water) of the same compound?
**A.** The survivor count was 0 of 10 on day 20.

**Q.** What about the survivor count (dose: 400.0 mg/kg/injection, schedule: Q07DX002 (ip), vehicle: water) of the same compound?
**A.** The survivor count was 0 of 10 on day 20 and 1 of 10 on day 20.

**Q.** What does the source list for `CCN(CC)CCCNc1nccc2c(C)c3[nH]c4ccncc4c3cc12`?
**A.** survivor count (dose: 20.0 mg/kg/injection, schedule: Q07DX002 (ip), vehicle: other): 1 of 10 on day 20; survivor count (dose: 24.0 mg/kg/injection, schedule: Q07DX002 (ip), vehicle: acid diluted with saline): 3 of 10 on day 20; survivor count (dose: 40.0 mg/kg/injection, schedule: Q07DX002 (ip), vehicle: other): 0 of 10 on day 20

**Q.** Which results are given for `O=C(Nc1ccc(Cl)c(Cl)c1)Nc1c(Oc2ccc(Cl)c(Cl)c2)ccc(Cl)c1S(=O)(=O)O`?
**A.** T/C (dose: 25.0 mg/kg/injection, schedule: Q07DX002 (ip), vehicle: Klucel (hydroxypropylcellulose) (HPC)): 136 % of control; T/C [6]: 139 % of control [9 of 10 alive]

**Q.** Which T/C [6] does the source give for `COc1ccc2c(c1)CCC(c1ccccc1)=C2c1ccc(OCCN2CCCC2)cc1` here?
**A.** Its T/C is 142 % of control.

**Q.** And the survivor count (dose: 200.0 mg/kg/injection, schedule: Q07DX002 (ip), vehicle: Klucel (hydroxypropylcellulose) (HPC))?
**A.** The survivor count was 3 of 10 on day 20.

**Q.** What about the survivor count (dose: 400.0 mg/kg/injection, schedule: Q07DX002 (ip), vehicle: Klucel (hydroxypropylcellulose) (HPC)) of the same compound?
**A.** The survivor count was 0 of 10 on day 20.

**Q.** How did the survivor count (dose: 400.0 mg/kg/injection, schedule: Q07DX002 (ip), vehicle: saline) turn out when `Cn1/c2cc/c1=C(\c1ccc(S(=O)(=O)O)cc1)c1ccc([n-]1)/C(c1ccc(S(=O)(=O)O)cc1)=c1/cc/c([nH]1)=C(\c1ccc(S(=O)(=O)O)cc1)c1ccc([n-]1)/C=2c1ccc(S(=O)(=O)O)cc1.O.O=S(=O)(O)C(F)(F)F.[Cu+2]` was run?
**A.** The survivor count was 3 of 10 on day 20.

Source: PubChem BioAssay AID212 (DTP/NCI, 2004)
